From paper PMC4561369
Results are given in words; binding and its absence hold for the method and conditions named. In cells and extracts the contact can be indirect. Some results given as binding are weak or reduced against the parent protein; the word gives no strength.

By UniProt entry, the sequences of proteins in these tests, tags left out.
UniProt Q91YN9: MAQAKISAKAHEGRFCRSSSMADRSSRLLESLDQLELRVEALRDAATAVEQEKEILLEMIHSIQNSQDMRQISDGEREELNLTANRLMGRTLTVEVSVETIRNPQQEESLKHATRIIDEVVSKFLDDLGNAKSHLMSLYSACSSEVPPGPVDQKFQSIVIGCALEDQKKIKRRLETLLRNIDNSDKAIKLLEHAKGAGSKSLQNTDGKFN

How the values were obtained:
[1] = target: mutant p53 (mutp53) R172H protein of Trp53^R172H/R172H knock-in mice (mouse (endogenous in tissues of Trp53^R172H/R172H mice)) (UniProt P02340); assay: co-IP; lysates of normal thymus, spleen and kidney of Trp53^R172H/R172H mice in NP-40 buffer; IP with anti-p53 (FL393), Western blot
[2] = target: mutant p53 (mutp53) R172H protein of Trp53^R172H/R172H knock-in mice (mouse (endogenous in tissues of Trp53^R172H/R172H mice)) (UniProt P02340); assay: co-IP; lysates of thymic lymphomas of Trp53^R172H/R172H mice (p53^−/− lymphomas as control) in NP-40 buffer; IP with anti-p53 (FL393), Western blot

binding [1]: binds weakly
binding [2]: binds
Substance: BAG2 (mouse, endogenous) (from UniProt Q91YN9 1-210)
